Measurements from publication PMC7874011.
These are yes or no findings as the source states them, for the method shown. In cells and extracts the contact can be indirect. Some results given as binding are weak or reduced against the parent protein; the word gives no strength. Blank lines part the entries; values can stand above or below the molecule they belong to.

By UniProt entry, the sequences of proteins in these tests, tags left out. Residues count along the entry.
UniProt P20029, residues 20-655: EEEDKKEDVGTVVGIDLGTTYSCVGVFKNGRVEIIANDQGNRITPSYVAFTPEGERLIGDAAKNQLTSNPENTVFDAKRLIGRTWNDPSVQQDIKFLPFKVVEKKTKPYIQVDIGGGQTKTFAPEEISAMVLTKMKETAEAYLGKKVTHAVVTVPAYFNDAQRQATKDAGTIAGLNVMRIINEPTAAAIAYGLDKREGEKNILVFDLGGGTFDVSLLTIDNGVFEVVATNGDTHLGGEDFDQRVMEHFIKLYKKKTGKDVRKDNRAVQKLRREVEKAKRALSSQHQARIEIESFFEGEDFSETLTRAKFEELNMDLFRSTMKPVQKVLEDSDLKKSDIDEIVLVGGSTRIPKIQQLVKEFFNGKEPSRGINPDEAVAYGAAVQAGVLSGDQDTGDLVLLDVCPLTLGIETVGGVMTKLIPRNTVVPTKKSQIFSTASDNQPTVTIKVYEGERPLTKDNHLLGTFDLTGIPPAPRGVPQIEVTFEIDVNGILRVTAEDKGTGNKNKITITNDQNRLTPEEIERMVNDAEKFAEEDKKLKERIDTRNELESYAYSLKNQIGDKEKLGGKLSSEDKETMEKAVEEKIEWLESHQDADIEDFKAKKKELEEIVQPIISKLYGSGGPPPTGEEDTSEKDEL
UniProt P06761, residues 19-654: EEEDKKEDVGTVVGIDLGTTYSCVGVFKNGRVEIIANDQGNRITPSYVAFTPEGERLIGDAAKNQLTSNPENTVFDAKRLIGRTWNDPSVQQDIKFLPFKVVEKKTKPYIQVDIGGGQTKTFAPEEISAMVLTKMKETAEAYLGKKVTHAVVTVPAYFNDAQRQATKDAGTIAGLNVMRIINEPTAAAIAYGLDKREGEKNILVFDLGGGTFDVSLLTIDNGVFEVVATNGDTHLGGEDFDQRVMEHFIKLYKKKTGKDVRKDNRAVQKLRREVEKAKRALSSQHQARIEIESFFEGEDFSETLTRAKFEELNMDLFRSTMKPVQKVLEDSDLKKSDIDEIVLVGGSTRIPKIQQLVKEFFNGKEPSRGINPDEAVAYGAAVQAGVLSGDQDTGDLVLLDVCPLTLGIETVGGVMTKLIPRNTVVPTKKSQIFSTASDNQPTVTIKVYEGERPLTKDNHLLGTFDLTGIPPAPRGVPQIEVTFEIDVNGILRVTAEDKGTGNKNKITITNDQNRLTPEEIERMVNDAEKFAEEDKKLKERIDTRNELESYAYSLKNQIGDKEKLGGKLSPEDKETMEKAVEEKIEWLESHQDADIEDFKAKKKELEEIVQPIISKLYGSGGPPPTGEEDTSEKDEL

Legend:
GST-SOCS3 fusion protein = GST-SOCS3 fusion protein (UniProt O35718); test: pull-down; in vitro GST pull-down: GRP78 expressed in HEK293 cells retained by GST or GST-SOCS3 fusion protein; immunoblot after binding reactions; only the target purified
Flag-GRP78 = Flag-GRP78 (UniProt P20029); test: co-IP; HEK293T (legend: HEK293) cells transfected with Myc-SOCS3 and Flag-GRP78; lysates immunoprecipitated with anti-Flag antibody; immunoblot with anti-Flag and anti-Myc
[1] = molecular target: Glucose regulatory protein 78 (GRP78), endogenous in neonatal rat cardiomyocytes (rat (endogenous in neonatal rat cardiomyocytes)) (UniProt P06761); test: co-IP; primary cardiomyocyte (NRCM) lysates immunoprecipitated with anti-GRP78 antibody or IgG control; immunoblot for SOCS3 and GRP78

binding (GST-SOCS3 fusion protein): binds
Molecule: GRP78 expressed in HEK293 cells (GST pull-down) (from UniProt P20029 20-655)

binding (Flag-GRP78): binds
Molecule: Myc-SOCS3 (from UniProt O35718 1-225)

binding [1]: binds
B1: Suppressor of cytokine signaling-3 (SOCS3), endogenous in neonatal rat cardiomyocytes (protein, UniProt O88583 1-225)
chain: MVTHSKFPAAGMSRPLDTSLRLKTFSSKSEYQLVVNAVRKLQESGFYWSAVTGGEANLLLSAEPAGTFLIRDSSDQRHFFTLSVETQSGTKNLRIQCEGGSFSLQSDPRSTQPVPRFDCVLKLVHHYMPPPGAPSFSLPPTEPSFEVQEQPPAQALPGGTPKRAYYIYSGGEKIPLVLSRPLSSNVATLQHLCRKTVNGHLDSYEKVTQLPGPIREFLDQYDAPL
